No constants are given. Whether binding was seen depends on the method and setting. In cells and extracts the contact can be indirect. Some binding calls cover weakened binding; strength is not graded here.

Chains of the proteins cited; added tags and fusions are not shown. Lines headed by an entry give the natural chain unless they say otherwise; changes in a name come on top. A line that says so, or that is headed by a name, gives the form on record, which may keep a tag or linker. Residues count along the entry.
His-tagged VCP ΔC-tail (deletion of amino acids 763-806) (P55072, residues 1-762): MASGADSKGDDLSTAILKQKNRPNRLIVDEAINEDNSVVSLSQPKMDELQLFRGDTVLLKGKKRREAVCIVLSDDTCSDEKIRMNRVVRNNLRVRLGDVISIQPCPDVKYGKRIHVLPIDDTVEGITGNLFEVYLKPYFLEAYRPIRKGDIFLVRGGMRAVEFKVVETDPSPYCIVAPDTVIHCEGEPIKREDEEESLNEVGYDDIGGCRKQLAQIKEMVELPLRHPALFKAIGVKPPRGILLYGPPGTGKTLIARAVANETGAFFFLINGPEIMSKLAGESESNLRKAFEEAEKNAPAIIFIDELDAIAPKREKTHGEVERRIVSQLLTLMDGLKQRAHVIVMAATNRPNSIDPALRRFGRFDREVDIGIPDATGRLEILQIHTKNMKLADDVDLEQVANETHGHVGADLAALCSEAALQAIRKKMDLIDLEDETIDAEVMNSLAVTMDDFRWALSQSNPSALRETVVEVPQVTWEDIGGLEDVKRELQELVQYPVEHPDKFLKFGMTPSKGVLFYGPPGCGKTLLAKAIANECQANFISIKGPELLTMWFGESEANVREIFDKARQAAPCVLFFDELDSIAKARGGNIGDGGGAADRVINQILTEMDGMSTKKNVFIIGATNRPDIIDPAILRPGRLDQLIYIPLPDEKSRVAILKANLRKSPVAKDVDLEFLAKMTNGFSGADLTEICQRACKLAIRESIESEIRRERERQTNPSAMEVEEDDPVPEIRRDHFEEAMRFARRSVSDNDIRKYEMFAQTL
His-tagged VCP ΔN (deletion of amino acids 1-184) (P55072, residues 185-806): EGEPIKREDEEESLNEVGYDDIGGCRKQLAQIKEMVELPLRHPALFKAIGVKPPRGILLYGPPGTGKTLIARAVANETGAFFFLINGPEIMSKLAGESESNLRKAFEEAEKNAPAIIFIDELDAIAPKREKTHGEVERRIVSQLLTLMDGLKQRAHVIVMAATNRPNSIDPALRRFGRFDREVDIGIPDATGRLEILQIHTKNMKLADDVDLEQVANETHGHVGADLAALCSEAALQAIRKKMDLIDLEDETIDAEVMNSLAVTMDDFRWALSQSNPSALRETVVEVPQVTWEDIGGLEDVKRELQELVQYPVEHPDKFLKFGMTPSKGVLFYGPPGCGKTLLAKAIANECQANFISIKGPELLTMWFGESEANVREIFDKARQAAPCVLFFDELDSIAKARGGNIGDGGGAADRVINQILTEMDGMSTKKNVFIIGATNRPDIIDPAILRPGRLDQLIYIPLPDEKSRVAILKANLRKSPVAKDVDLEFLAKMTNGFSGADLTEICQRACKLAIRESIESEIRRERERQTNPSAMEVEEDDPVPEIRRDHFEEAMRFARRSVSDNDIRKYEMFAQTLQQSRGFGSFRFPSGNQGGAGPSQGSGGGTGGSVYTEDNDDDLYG
His-tagged VCP ΔD1 (deletion of amino acids 210-463) (P55072, form named): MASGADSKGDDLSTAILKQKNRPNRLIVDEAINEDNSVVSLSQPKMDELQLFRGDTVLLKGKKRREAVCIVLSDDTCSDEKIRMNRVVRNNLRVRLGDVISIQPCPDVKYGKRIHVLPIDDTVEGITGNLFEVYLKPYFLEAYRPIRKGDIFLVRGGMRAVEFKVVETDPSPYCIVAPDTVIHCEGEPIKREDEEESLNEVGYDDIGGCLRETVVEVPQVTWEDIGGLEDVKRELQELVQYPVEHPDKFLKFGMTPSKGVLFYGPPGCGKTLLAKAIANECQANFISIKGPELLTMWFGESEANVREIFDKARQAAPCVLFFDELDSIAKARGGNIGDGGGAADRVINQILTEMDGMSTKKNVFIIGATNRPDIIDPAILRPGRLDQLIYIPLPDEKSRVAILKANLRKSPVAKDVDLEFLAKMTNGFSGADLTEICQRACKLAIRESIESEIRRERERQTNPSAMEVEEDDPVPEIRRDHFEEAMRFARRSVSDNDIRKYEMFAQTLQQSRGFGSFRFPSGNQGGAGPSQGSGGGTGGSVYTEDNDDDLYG
His-tagged VCP ΔD2 (deletion of amino acids 482-762) (P55072, form named): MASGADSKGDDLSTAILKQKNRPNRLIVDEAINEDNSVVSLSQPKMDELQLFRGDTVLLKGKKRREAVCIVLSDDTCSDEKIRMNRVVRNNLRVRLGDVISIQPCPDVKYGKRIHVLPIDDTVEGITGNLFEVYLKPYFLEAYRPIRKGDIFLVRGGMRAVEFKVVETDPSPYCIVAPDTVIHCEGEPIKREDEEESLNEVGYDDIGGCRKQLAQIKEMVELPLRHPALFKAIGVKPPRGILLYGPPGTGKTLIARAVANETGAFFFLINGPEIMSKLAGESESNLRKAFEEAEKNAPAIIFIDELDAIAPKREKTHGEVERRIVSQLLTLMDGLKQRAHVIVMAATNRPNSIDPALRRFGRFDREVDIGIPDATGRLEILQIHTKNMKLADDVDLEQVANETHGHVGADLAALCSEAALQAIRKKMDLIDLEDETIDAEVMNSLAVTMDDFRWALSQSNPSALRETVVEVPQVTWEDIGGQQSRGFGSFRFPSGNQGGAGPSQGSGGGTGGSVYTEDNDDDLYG
UniProt O75973, residues 17-258: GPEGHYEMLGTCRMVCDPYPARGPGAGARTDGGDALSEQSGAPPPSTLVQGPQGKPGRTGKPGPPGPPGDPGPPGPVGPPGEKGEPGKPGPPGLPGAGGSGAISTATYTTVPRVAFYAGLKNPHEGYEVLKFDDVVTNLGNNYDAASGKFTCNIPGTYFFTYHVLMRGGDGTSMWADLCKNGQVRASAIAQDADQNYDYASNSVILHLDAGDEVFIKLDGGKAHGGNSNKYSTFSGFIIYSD

Experiment [1] deals with heat shock protein 90α (HSP90α), endogenous in MDA-MB-231 and MDA-MB-468 cells (human (endogenous in MDA-MB-231 and MDA-MB-468)) (UniProt P07900). Briefly: co-IP; lysates (immunoprecipitation-specific RIPA buffer) of MDA-MB-231 and MDA-MB-468 cells stably expressing C1QL1-Flag; precipitated with Flag antibodies or HSP90α and VCP antibodies overnight at 4 °C, protein A and G agarose; western blot.

Experiment [2] deals with valosin-containing protein (VCP), endogenous in MDA-MB-231 and MDA-MB-468 cells (human (endogenous in MDA-MB-231 and MDA-MB-468)) (UniProt P55072). The experiment is described as above.
In experiment [3] the target is C1QL1-FLAG, transfected into HEK293T cells (UniProt O75973). Briefly: co-IP; HEK293T cells transfected with the C1QL1 plasmid and HA-tagged HSP90α or His-tagged VCP (full length or deletion mutants); lysate in RIPA buffer, protein A and G agarose; western blot.
Experiment [4] concerns the target C1QL1-FLAG (complement component 1, q subcomponent-like 1), stably expressed in MDA-MB-231 and MDA-MB-468 cells (UniProt O75973). Description: co-IP; lysates (immunoprecipitation-specific RIPA buffer) of MDA-MB-231 and MDA-MB-468 cells stably expressing C1QL1-Flag; precipitated with Flag antibodies or HSP90α and VCP antibodies overnight at 4 °C, protein A and G agarose; western blot.

As to “C1QL1-FLAG (complement component 1, q subcomponent-like 1), stably expressed in MDA-MB-231 and MDA-MB-468 cells (from UniProt O75973 17-258)”, the binding entry in experiment [1] and in experiment [2] was “binds” throughout. Take “HA-tagged HSP90α full length (WT) (from UniProt P07900 1-732)”: in experiment [3], the binding result is recorded as “binds”.

As for “HA-tagged HSP90α ΔC (deletion of amino acids 621-732) (from UniProt P07900 1-620) (domain or fragment)”, the binding result in experiment [3] is on record as “binds”.

Take “HA-tagged HSP90α ΔM (deletion of amino acids 265-620) (from UniProt P07900 1-732) (domain or fragment)”: in experiment [3], the binding result is “binds”. The same measure, in the same setting: to “HA-tagged HSP90α ΔN (deletion of amino acids 1-264) (from UniProt P07900 265-732) (domain or fragment)” belongs “binds”; to “His-tagged VCP full length (WT) (from UniProt P55072 1-806)”, “binds”. Still for that read-out and setting: to “His-tagged VCP ΔC-tail (deletion of amino acids 763-806) (from UniProt P55072 1-762) (domain or fragment)” belongs “binds”; to “His-tagged VCP ΔD1 (deletion of amino acids 210-463) (from UniProt P55072 1-806) (domain or fragment)”, “binds”; to “His-tagged VCP ΔD2 (deletion of amino acids 482-762) (from UniProt P55072 1-806) (domain or fragment)”, “binds”. Still for that read-out and setting: the value for “His-tagged VCP ΔN (deletion of amino acids 1-184) (from UniProt P55072 185-806) (domain or fragment)” was “binds”.

Consider “heat shock protein 90α (HSP90α), endogenous in MDA-MB-231 and MDA-MB-468 cells (from UniProt P07900 1-732)”, for which the binding entry in experiment [4] is reported as “binds”. For “valosin-containing protein (VCP), endogenous in MDA-MB-231 and MDA-MB-468 cells (from UniProt P55072 1-806)”, in experiment [4], the binding entry is reported as “binds”.

Source of the values: publication PMC12229345.
